Experimental data published in article PMC12583701.

Protein sequences, listed by entry. Tags and fused reporters are not part of them. Lines headed by an entry give the natural chain unless they say otherwise; changes in a name come on top.
UniProt P49024: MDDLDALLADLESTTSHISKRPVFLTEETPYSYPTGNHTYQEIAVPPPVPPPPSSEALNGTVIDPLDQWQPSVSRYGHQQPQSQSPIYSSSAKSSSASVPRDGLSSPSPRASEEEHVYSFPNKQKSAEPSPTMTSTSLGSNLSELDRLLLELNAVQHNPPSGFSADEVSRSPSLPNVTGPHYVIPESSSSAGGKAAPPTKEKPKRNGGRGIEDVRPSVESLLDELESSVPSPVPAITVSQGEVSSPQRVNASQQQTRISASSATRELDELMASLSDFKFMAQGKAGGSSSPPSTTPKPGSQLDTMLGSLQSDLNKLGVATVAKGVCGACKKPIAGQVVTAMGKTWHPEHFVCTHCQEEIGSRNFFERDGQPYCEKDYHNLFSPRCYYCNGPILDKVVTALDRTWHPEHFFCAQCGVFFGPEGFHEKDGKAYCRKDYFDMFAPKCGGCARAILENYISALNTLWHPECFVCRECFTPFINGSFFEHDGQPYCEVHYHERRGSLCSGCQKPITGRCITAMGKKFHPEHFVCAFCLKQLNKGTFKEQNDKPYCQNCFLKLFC

What was measured:
Experiment in all cases: co-IP; anti-FLAG immunoprecipitation of lysates of Neuro2a cells transfected with FLAG-tagged paxillin variants, in the presence of forskolin; immunoblot of endogenous partners
[1] = molecular target: Flag-Paxillin(P516A/Y517A) (UniProt P49024)
[2] = molecular target: Flag-Paxillin(P398A/Y399A) (UniProt P49024)
[3] = molecular target: Flag-Paxillin(P398A/Y399A,516A/Y517A;P575A/Y576A) (UniProt P49024)
[4] = molecular target: Flag-Paxillin(P575A/Y576A) (UniProt P49024)

Measured: binding

B1: importin β2 (protein, UniProt Q8BFY9 1-898)
chain: MVWDRQTKMEYEWKPDEQGLQQILQLLKESQSPDTTIQRTVQQKLEQLNQYPDFNNYLIFVLTKLKSEDEPTRSLSGLILKNNVKAHFQNFPNGVTDFIKSECLNNIGDSSPLIRATVGILITTIASKGELQNWPDLLPKLCSLLDSEDYNTCEGAFGALQKICEDSAEILDSDVLDRPLNIMIPKFLQFFKHSSPKIRSHAVACVNQFIISRTQALMLHIDSFIENLFALAGDEEAEVRKNVCRALVMLLEVRMDRLLPHMHNIVEYMLQRTQDQDENVALEACEFWLTLAEQPICKDVLVRHLPKLIPVLVNGMKYSDIDIILLKGDVEEDETIPDSEQDIRPRFHRSRTVAQQHEEDGIEEEDDDDDEIDDDDTISDWNLRKCSAAALDVLANVYRDELLPHILPLLKELLFHHEWVVKESGILVLGAIAEGCMQGMIPYLPELIPHLIQCLSDKKALVRSITCWTLSRYAHWVVSQPPDTYLKPLMTELLKRILDSNKRVQEAACSAFATLEEEACTELVPYLAYILDTLVFAFSKYQHKNLLILYDAIGTLADSVGHHLNKPEYIQMLMPPLIQKWNMLKDEDKDLFPLLECLSSVATALQSGFLPYCEPVYQRCVNLVQKTLAQAMLNNAQPEQYEAPDKDFMIVALDLLSGLAEGLGGNIEQLVARSNILTLMYQCMQDKMPEVRQSSFALLGDLTKACFQHVKPCIADFMPILGTNLNPEFISVCNNATWAIGEISIQMGIEMQPYIPMVLHQLVEIINRPNTPKTLLENTAITIGRLGYVCPQEVAPMLQQFIRPWCTSLRNIRDNEEKDSAFRGICTMISVNPSGVIQDFIFFCDAVASWINPKDDLRDMFCKILHGFKNQVGDENWRRFSDQFPLPLKERLAAFYGV
binds: all assays above

These are yes or no findings as the source states them, for the method shown. Binding seen in cells or lysates may run through a third protein. Binding can be weak; no strength is given.
